Laboratory results published in paper doi:10.1101/2025.11.17.688780.

T1: Brn1-V5 (S. cerevisiae) (UniProt P38170)
T1 sequence: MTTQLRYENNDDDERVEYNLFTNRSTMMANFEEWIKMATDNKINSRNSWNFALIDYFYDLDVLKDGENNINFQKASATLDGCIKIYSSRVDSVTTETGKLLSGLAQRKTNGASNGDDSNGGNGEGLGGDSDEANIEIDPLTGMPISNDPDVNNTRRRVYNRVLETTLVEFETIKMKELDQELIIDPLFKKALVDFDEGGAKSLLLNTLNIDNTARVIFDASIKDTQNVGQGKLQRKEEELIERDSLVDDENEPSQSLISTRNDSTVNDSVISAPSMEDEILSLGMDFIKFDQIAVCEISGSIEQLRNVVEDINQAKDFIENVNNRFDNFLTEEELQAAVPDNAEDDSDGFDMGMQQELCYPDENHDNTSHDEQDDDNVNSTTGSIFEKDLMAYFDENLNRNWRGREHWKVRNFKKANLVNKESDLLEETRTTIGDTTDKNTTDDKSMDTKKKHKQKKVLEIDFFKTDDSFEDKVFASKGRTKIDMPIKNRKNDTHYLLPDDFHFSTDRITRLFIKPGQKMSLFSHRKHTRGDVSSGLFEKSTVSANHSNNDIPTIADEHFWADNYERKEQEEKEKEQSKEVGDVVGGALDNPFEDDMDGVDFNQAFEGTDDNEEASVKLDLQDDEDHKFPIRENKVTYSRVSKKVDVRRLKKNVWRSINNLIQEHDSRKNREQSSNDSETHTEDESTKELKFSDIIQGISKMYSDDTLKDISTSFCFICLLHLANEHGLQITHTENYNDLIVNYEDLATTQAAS

B1: Smc2 D1112A, HA tagged (protein, UniProt P38989 1-1170)
chain: MKVEELIIDGFKSYATRTVITDWDPQFNAITGLNGSGKSNILDAICFVLGIASMSTVRASSLQDLIYKRGQAGVTKASVTIVFDNTDKSNSPIGFTNSPQISVTRQVVLGGTSKYLINGHRAPQQSVLQLFQSVQLNINNPNFLIMQGKITKVLNMKPSEILSLIEEAAGTKMFEDRREKAERTMSKKETKLQENRTLLTEEIEPKLEKLRNEKRMFLEFQSTQTDLEKTERIVVSYEYYNIKHKHTSIRETLENGETRMKMLNEFVKKTSEEIDSLNEDVEEIKLQKEKELHKEGTISKLENKENGLLNEISRLKTSLSIKVENLNDTTEKSKALESEIASSSAKLIEKKSAYANTEKDYKMVQEQLSKQRDLYKRKEELVSTLTTGISSTGAADGGYNAQLAKAKTELNEVSLAIKKSSMKMELLKKELLTIEPKLKEATKDNELNVKHVKQCQETCDKLRARLVEYGFDPSRIKDLKQREDKLKSHYYQTCKNSEYLKRRVTNLEFNYTKPYPNFEASFVHGVVGQLFQIDNDNIRYATALQTCAGGRLFNVVVQDSQTATQLLERGRLRKRVTIIPLDKIYTRPISSQVLDLAKKIAPGKVELAINLIRFDESITKAMEFIFGNSLICEDPETAKKITFHPKIRARSITLQGDVYDPEGTLSGGSRNTSESLLVDIQKYNQIQKQIETIQADLNHVTEELQTQYATSQKTKTIQSDLNLSLHKLDLAKRNLDANPSSQIIARNEEILRDIGECENEIKTKQMSLKKCQEEVSTIEKDMKEYDSDKGSKLNELKKELKLLAKELEEQESESERKYDLFQNLELETEQLSSELDSNKTLLHNHLKSIESLKLENSDLEGKIRGVEDDLVTVQTELNEEKKRLMDIDDELNELETLIKKKQDEKKSSELELQKLVHDLNKYKSNTNNMEKIIEDLRQKHEFLEDFDLVRNIVKQNEGIDLDTYRERSKQLNEKFQELRKKVNPNIMNMIENVEKKEAALKTMIKTIEKDKMKIQETISKLNEYKRETLVKTWEKVTLDFGNIFADLLPNSFAKLVPCEGKDVTQGLEVKVKLGNIWKESLIELSGGQRSLIALSLIMALLQFRPAPMYILAEVDAALDLSHTQNIGHLIKTRFKGSQFIVVSLKEGMFANANRVFRTRFQDGTSVVSIM
B2: Smc2 E1113Q, HA tagged (protein, UniProt P38989 1-1170)
chain: B1 chain with A1112D, E1113Q
B3: Smc2 R58A, HA tagged (protein, UniProt P38989 1-1170)
chain: B1 chain with R58A, A1112D
B4: Smc2 S1085R, HA tagged (protein, UniProt P38989 1-1170)
chain: B1 chain with S1085R, A1112D
B5: Smc2 L567K, HA tagged (protein, UniProt P38989 1-1170)
chain: B1 chain with L567K, A1112D
B6: Smc2 L665R, HA tagged (protein, UniProt P38989 1-1170)
chain: B1 chain with L665R, A1112D
B7: Smc4 (protein, UniProt Q12267 1-1418)
chain: MSDSPLSKRQKRKSAQEPELSLDQGDAEEDSQVENRVNLSENTPEPDLPALEASYSKSYTPRKLVLSSGENRYAFSQPTNSTTTSLHVPNLQPPKTSSRGRDHKSYSQSPPRSPGRSPTRRLELLQLSPVKNSRVELQKIYDRHQSSSKQQSRLFINELVLENFKSYAGKQVVGPFHTSFSAVVGPNGSGKSNVIDSMLFVFGFRANKMRQDRLSDLIHKSEAFPSLQSCSVAVHFQYVIDESSGTSRIDEEKPGLIITRKAFKNNSSKYYINEKESSYTEVTKLLKNEGIDLDHKRFLILQGEVENIAQMKPKAEKESDDGLLEYLEDIIGTANYKPLIEERMGQIENLNEVCLEKENRFEIVDREKNSLESGKETALEFLEKEKQLTLLRSKLFQFKLLQSNSKLASTLEKISSSNKDLEDEKMKFQESLKKVDEIKAQRKEIKDRISSCSSKEKTLVLERRELEGTRVSLEERTKNLVSKMEKAEKTLKSTKHSISEAENMLEELRGQQTEHETEIKDLTQLLEKERSILDDIKLSLKDKTKNISAEIIRHEKELEPWDLQLQEKESQIQLAESELSLLEETQAKLKKNVETLEEKILAKKTHKQELQDLILDLKKKLNSLKDERSQGEKNFTSAHLKLKEMQKVLNAHRQRAMEARSSLSKAQNKSKVLTALSRLQKSGRINGFHGRLGDLGVIDDSFDVAISTACPRLDDVVVDTVECAQHCIDYLRKNKLGYARFILLDRLRQFNLQPISTPENVPRLFDLVKPKNPKFSNAFYSVLRDTLVAQNLKQANNVAYGKKRFRVVTVDGKLIDISGTMSGGGNHVAKGLMKLGTNQSDKVDDYTPEEVDKIERELSERENNFRVASDTVHEMEEELKKLRDHEPDLESQISKAEMEADSLASELTLAEQQVKEAEMAYVKAVSDKAQLNVVMKNLERLRGEYNDLQSETKTKKEKIKGLQDEIMKIGGIKLQMQNSKVESVCQKLDILVAKLKKVKSASKKSGGDVVKFQKLLQNSERDVELSSDELKVIEEQLKHTKLALAENDTNMNETLNLKVELKEQSEQLKEQMEDMEESINEFKSIEIEMKNKLEKLNSLLTYIKSEITQQEKGLNELSIRDVTHTLGMLDDNKMDSVKEDVKNNQELDQEYRSCETQDESEIKDAETSCDNYHPMNIDETSDEVSRGIPRLSEDELRELDVELIESKINELSYYVEETNVDIGVLEEYARRLAEFKRRKLDLNNAVQKRDEVKEQLGILKKKRFDEFMAGFNIISMTLKEMYQMITMGGNAELELVDSLDPFSEGVTFSVMPPKKSWRNITNLSGGEKTLSSLALVFALHKYKPTPLYVMDEIDAALDFRNVSIVANYIKERTKNAQFIVISLRNNMFELAQQLVGVYKRDNRTKSTTIKNIDILNRT
B8: Ycg1 (protein, UniProt Q06680 1-1035)
chain: MQDPDGIDINTKIFNSVAEVFQKAQGSYAGHRKHIAVLKKIQSKAVEQGYEDAFNFWFDKLVTKILPLKKNEIIGDRIVKLVAAFIASLERELILAKKQNYKLTNDEEGIFSRFVDQFIRHVLRGVESPDKNVRFRVLQLLAVIMDNIGEIDESLFNLLILSLNKRIYDREPTVRIQAVFCLTKFQDEEQTEHLTELSDNEENFEATRTLVASIQNDPSAEVRRAAMLNLINDNNTRPYILERARDVNIVNRRLVYSRILKSMGRKCFDDIEPHIFDQLIEWGLEDRELSVRNACKRLIAHDWLNALDGDLIELLEKLDVSRSSVCVKAIEALFQSRPDILSKIKFPESIWKDFTVEIAFLFRAIYLYCLDNNITEMLEENFPEASKLSEHLNHYILLRYHHNDISNDSQSHFDYNTLEFIIEQLSIAAERYDYSDEVGRRSMLTVVRNMLALTTLSEPLIKIGIRVMKSLSINEKDFVTMAIEIINDIRDDDIEKQEQEEKIKSKKINRRNETSVDEEDENGTHNDEVNEDEEDDNISSFHSAVENLVQGNGNVSESDIINNLPPEKEASSATIVLCLTRSSYMLELVNTPLTENILIASLMDTLITPAVRNTAPNIRELGVKNLGLCCLLDVKLAIDNMYILGMCVSKGNASLKYIALQVIVDIFSVHGNTVVDGEGKVDSISLHKIFYKVLKNNGLPECQVIAAEGLCKLFLADVFTDDDLFETLVLSYFSPINSSNEALVQAFAFCIPVYCFSHPAHQQRMSRTAADILLRLCVLWDDLQSSVIPEVDREAMLKPNIIFQQLLFWTDPRNLVNQTGSTKKDTVQLTFLIDVLKIYAQIEKKEIKKMIITNINAIFLSSEQDYSTLKELLEYSDDIAENDNLDNVSKNALDKLRNNLNSLIEEINERSETQTKDENNTANDQYSSILGNSFNKSSNDTIEHAADITDGNNTELTKTTVNISAVDNTTEQSNSRKRTRSEAEQIDTSKNLENMSIQDTSTVAKNVSFVLPDEKSDAMSIDEEDKDSESFSEVC

The binders below were run against T1, Brn1-V5 (S. cerevisiae) (assay: affinity purification with mass spectrometry).
In the case of B1, the binding is reported as “binds”.
B2 was tested, and the binding was “binds”.
With B3 the binding was “binds”.
B4 was tested, and the binding was “binds”.
With B5 the binding was “binds”.
B6 was tested, and the binding was “binds”.
With B7 the binding was “binds”.
In the case of B8, the binding is reported as “binds”.

Residue numbers refer to the chain shown, from its start. Names and notes keep the numbering of the source. No constants are given. Whether binding was seen depends on the method and setting. Binding seen in cells or lysates may run through a third protein. A yes stands for co-enrichment or nearness to the bait. Other partners may have been found. Tags and fused reporters may be left off the sequences shown.
